Assay results published in PubChem BioAssay AID2417 (National Center for Advancing Translational Sciences (NCATS), 2010).
Screen size: about 140,000 compounds; about 4,300 (3.1%) were called active. This list was built around the results that the source calls inconclusive (neither active nor inactive); the mix of calls is not that of the screen.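 The calls were made as follows: active = readout at or below -70, meaning at least 70% loss of cells showing the perinucleolar compartment, a nuclear body marking cancer cells; inconclusive = readout between -30 and a set limit; inactive = the rest.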

Test: High Content Assay for Compounds that inhibit the Assembly of the Perinucleolar Compartment;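 also: plate controls were DMSO wells for no effect and camptothecin positive control wells for full effect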
Conditions: PC3M PTB-GFP, PNC prevalence imaging, 16 h; at 10 µM; active compounds read low
Procedure, shortened: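 Read-out is percentage of cells bearing a perinucleolar compartment, from automated 20x imaging of fixed, Hoechst-stained PC3M PTB-GFP cells. Cells were seeded 4 h, then exposed 16 h to compound (23 nl of library stock) in duplicate plates.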
In the case of CC(C)(C)OC(=O)NCCc1nnc(SCc2c(Cl)cccc2Cl)o1, the activity change (PNC), negative = inhibition is reported as inconclusive: -50.2%. For Nc1nc(N2CCCCC2)nc(N(c2ccccc2)c2ccccc2)n1, the activity change (PNC), negative = inhibition was inconclusive: -68.3%. For O=C(O)c1cccc(COCC(F)(F)C(F)F)c1, the activity change (PNC), negative = inhibition was inconclusive: -42.9%. With CCOC(=O)NC(=O)C(=CNc1ccc(C)cc1)C(=O)NC(=O)OCC the activity change (PNC), negative = inhibition was inconclusive: -32.6%. In the case of Cc1ccc(CNCc2ccccc2Cl)cc1, the activity change (PNC), negative = inhibition is reported as inconclusive: -31.2%. In the case of CCOC(=O)C1=C(C)OC(N)=C(C(=O)OCC)C1c1ccncc1 (centres undefined), the activity change (PNC), negative = inhibition is reported as inconclusive: -43.6%. With CSc1nc(N)nc(SCC(=O)Nc2ccc(Cl)cc2)c1C#N the activity change (PNC), negative = inhibition was inconclusive: -34.2%. With CN(C)c1ccc(C(CC(=O)c2ccccc2)C2CCCCC2=O)cc1 (centres undefined) the activity change (PNC), negative = inhibition was inactive: 78.1%. For O=c1c2ccccc2c(/C=N/c2nnc(Cc3ccccc3)s2)c(O)n1-c1ccc(Cl)cn1, the activity change (PNC), negative = inhibition was inconclusive: -56.4%. For Cc1ccc2[nH]c(=O)c(CN(CCc3ccccc3)Cc3nnnn3CC3CCCO3)cc2c1 (centres undefined), the activity change (PNC), negative = inhibition was inactive: 212%. In the case of CCOC(=O)N1CCN(c2cc(N)c([N+](=O)[O-])cc2F)CC1, the activity change (PNC), negative = inhibition is reported as inactive: -22.2%. With Cc1ccc(-c2ccc(/C=N/NC(=O)CN3CCCC3)o2)cc1Cl the activity change (PNC), negative = inhibition was inconclusive: -38.2%. With COc1ccc(N/C=C(\C#N)c2nc3ccccc3n2C)c(OC)c1 the activity change (PNC), negative = inhibition was inactive: 8.8%. With Cc1ccc2cc(/C=N/NC(=O)[C@H]3C[C@@H]3c3ccccc3)c(Cl)nc2c1 the activity change (PNC), negative = inhibition was inconclusive: -46.1%. In the case of Nc1ccc2nc(-c3ccccn3)[nH]c2c1, the activity change (PNC), negative = inhibition is reported as inactive: -10.9%. With COC(=O)c1scc(C)c1N/N=C(\C)c1cc(F)c(Cl)cc1F the activity change (PNC), negative = inhibition was inconclusive: -79.1%. For O=C(O/N=C1/CCCc2occc21)c1ccccc1, the activity change (PNC), negative = inhibition was inconclusive: -48.3%. For CCC(=O)CCC(=O)c1ccc2ccccc2c1, the activity change (PNC), negative = inhibition was inconclusive: -31.5%. In the case of COc1ccc(C(NC(=O)c2ccc(F)cc2)c2ccccc2)cc1 (centres undefined), the activity change (PNC), negative = inhibition is reported as inactive: 3.9%. For O=C(Nc1cccc(O)c1)c1cccc(S(=O)(=O)N2CCCC2)c1, the activity change (PNC), negative = inhibition was inconclusive: -44.1%. With COC(=O)c1[nH]c2ccccc2c1NC(=O)CCN1CCN(C2CCCCC2)CC1 the activity change (PNC), negative = inhibition was inactive: 19.3%. With COC(=O)c1sccc1NC(=O)Nc1ccc(Cl)c(Cl)c1 the activity change (PNC), negative = inhibition was inconclusive: -43.7%. In the case of COc1cccc(C(=O)NCC(=O)OCC(=O)C(C)(C)C)c1, the activity change (PNC), negative = inhibition is reported as inconclusive: -40.4%. With Cc1[nH]c2ccccc2c1C(=O)C(=O)N1CC=C(c2ccccc2)CC1 the activity change (PNC), negative = inhibition was inconclusive: -54%. For Cn1ncc(Cl)c1C(=O)N/N=C/c1ccccn1, the activity change (PNC), negative = inhibition was inconclusive: -39.9%. With COc1ccccc1CNC(=O)C1CCCN1S(=O)(=O)c1cccc2cccnc12 (centres undefined) the activity change (PNC), negative = inhibition was inactive: -0.498%. In the case of COc1cc2c(cc1OC)CN(c1nc(CN3CCOCC3)nc3sc4c(c13)CCC(C)C4)CC2 (centres undefined), the activity change (PNC), negative = inhibition is reported as inconclusive: -61.4%. In the case of Cc1ccc(C(=O)NCC(=O)OCC(=O)Nc2ccc(Cl)cc2C(F)(F)F)cc1C, the activity change (PNC), negative = inhibition is reported as inconclusive: -76.6%. In the case of COc1ccc(/C(C)=N\n2cnnc2)cc1, the activity change (PNC), negative = inhibition is reported as inactive: -26.8%. With Cc1oc2ccc(O)cc2c1C(=O)c1ccc([N+](=O)[O-])cc1 the activity change (PNC), negative = inhibition was inactive: 11.3%. In the case of CC1CCN(C(=O)C(C)Sc2nc(-c3ccccc3)cc(C(F)(F)F)n2)CC1 (centres undefined), the activity change (PNC), negative = inhibition is reported as inactive: -11.8%. In the case of O=C(CSCc1ccccn1)Nc1ccccc1, the activity change (PNC), negative = inhibition is reported as inconclusive: -50.2%. In the case of CC(Oc1ccc2c(-c3ccccc3)cc(=O)oc2c1)C(=O)O (centres undefined), the activity change (PNC), negative = inhibition is reported as inactive: 32.8%. For O=C(Nc1cccc(Cl)c1N1CCCCC1)c1ccc2c(c1)OCCO2, the activity change (PNC), negative = inhibition was inconclusive: -32.5%. In the case of CCCNC(=O)c1cc2nc(-c3ccccc3)cc(C(F)(F)F)n2n1, the activity change (PNC), negative = inhibition is reported as inactive: -14.7%. With Cc1ccc(C(=O)N2CCN(c3ccccc3)CC2)cc1S(=O)(=O)N1CCCC1 the activity change (PNC), negative = inhibition was inconclusive: -58.1%. For Cc1sc2nc(SCC(=O)NCc3ccco3)n(C)c(=O)c2c1C, the activity change (PNC), negative = inhibition was inactive: 2.25%. For COc1ccc(C(=O)Nc2cc(OC)nc(OC)n2)cc1, the activity change (PNC), negative = inhibition was active: -81%. With Cc1nnc(Sc2nc3ccccc3o2)c2ccccc12 the activity change (PNC), negative = inhibition was inconclusive: -52.4%. With O=C(c1csc2c1CCCC2)N1CCCCC1 the activity change (PNC), negative = inhibition was inactive: 11.9%. With CC(C)N(CCNC(=O)C1CCN(S(=O)(=O)N2CCOCC2)CC1)Cc1ccccc1 the activity change (PNC), negative = inhibition was active: -102%. In the case of CCOc1ccccc1NC(=O)CSC1=C(C#N)C(c2ccco2)C(C(=O)Nc2nc3ccccc3s2)=C(C)N1 (centres undefined), the activity change (PNC), negative = inhibition is reported as inconclusive: -75.8%. With CC(CCc1ccccc1)N1CCN(Cc2ccccc2)CC1 (centres undefined) the activity change (PNC), negative = inhibition was inconclusive: -43%. In the case of O=C(Oc1ccc2ccccc2c1Br)N1CCCCCC1, the activity change (PNC), negative = inhibition is reported as inconclusive: -37.7%. With CN1C(=O)CSc2ccc(NC(=O)NCc3ccco3)cc21 the activity change (PNC), negative = inhibition was inconclusive: -31.1%. With O=[N+]([O-])c1cn(Cc2ccc(Cl)cc2)cn1 the activity change (PNC), negative = inhibition was inconclusive: -51.9%. In the case of CCOc1ccc(OCCN2C(=O)NC3(CCCc4ccccc43)C2=O)cc1 (centres undefined), the activity change (PNC), negative = inhibition is reported as inconclusive: -36%. In the case of O=C(NCc1cccs1)c1ccccc1, the activity change (PNC), negative = inhibition is reported as inactive: 28.8%. With O=C(Cc1cccs1)Nc1nnc(SCc2ccc(C(F)(F)F)cc2)s1 the activity change (PNC), negative = inhibition was inconclusive: -39.5%. With Clc1ccc(-c2nnc(-c3ccco3)nc2N2CCCCC2)cc1 the activity change (PNC), negative = inhibition was inconclusive: -68.9%. For CC(C)CC(NC(N)=O)C(=O)OCC(=O)NC(=O)NC1CCCC1 (centres undefined), the activity change (PNC), negative = inhibition was inconclusive: -42%. For COC(=O)c1ccc(C2C(C(=O)OC(C)C)=C(C)N=C3SCCC(=O)N32)cc1 (centres undefined), the activity change (PNC), negative = inhibition was active: -90%. For O=C(c1cnn(C(=O)c2ccccc2)c1)c1ccccc1O, the activity change (PNC), negative = inhibition was inconclusive: -57.9%. For Cc1nc2sc(C(c3cccs3)N3CCN(c4ccccc4)CC3)c(O)n2n1 (centres undefined), the activity change (PNC), negative = inhibition was inconclusive: -50.5%. In the case of CN(C)c1ccc(C(=S)N2CCN(c3ccccc3)CC2)cc1, the activity change (PNC), negative = inhibition is reported as inactive: 9.35%. For c1ccc(-n2nnnc2-n2ccnc2)cc1, the activity change (PNC), negative = inhibition was inconclusive: -45.2%. With CCCCn1c(SCC(=O)N2CCN(c3ccccc3)CC2)nc2ccsc2c1=O the activity change (PNC), negative = inhibition was active: -112%. For CC(C)N(C(=S)Nc1cc(S(=O)(=O)N2CCOCC2)ccc1Cl)c1ccccc1, the activity change (PNC), negative = inhibition was inconclusive: -40.9%. With COc1cc(C2C(C#N)=C(N)Oc3c2c(-c2ccccc2)nn3-c2ccccc2)cc(OC)c1OC (centres undefined) the activity change (PNC), negative = inhibition was inactive: 28.8%.
